Results are given in words; binding and its absence hold for the method and conditions named.
Assays:
SAF-1 [1] = assay: BIAcore
SAF-1 [2] = assay: displacement immunoassay

B1: monoclonal antibody 12B1 (antibody, IgG2a, V domains shown)
VH: QIQLQQSGPELVKPGASVKVSCKASGYSFTDYNIYWVKQSHGKSLEWIGYIDPYNDDTGYNQKFKGKATLTVDKSSSTAFMHLNSLTSEDSAVYYCASEGIHWGQGTLVTVS
VL: DIVMTQSQKFMSTSVGDRVSVTCKASQNVGTNVAWFQQKPGQSPKALIYSASYRYNGVPDRFTGSGSGTDFTLTISNVQSEDLADYFCQQYNIYPYTFGGGTKLEIK
notes: also called mAb 12B1; SAF-3 mAb (clone 12B1)
With B1 the binding (SAF-1 [1]) was “no binding” and the binding (SAF-1 [2]) was “no binding (tested: max. displacement 5%)”.
